These are yes or no findings as the source states them, for the method shown. In cells and extracts the contact can be indirect. Some binding calls cover weakened binding; strength is not graded here. Sequences can lack the tags named with a protein.
Tests used:
Assay in all cases: pull-down; 50 µg GST fusion on glutathione-Sepharose beads; lysate of HeLa-M cells transfected with Myc-Munc18-2; STEP buffer (10 mM Tris pH 8.0, 150 mM NaCl, 1 mM EDTA, 1 mM DTT, 1 mM PMSF) with 0.5% Triton X-100; 4°C, 2 h; immunoblot for SNAP23 and Myc tag; only the target purified
GST-syntaxin 11 (human) = biological target: T1, GST-syntaxin 11 (human) (UniProt O75558)
T1 sequence: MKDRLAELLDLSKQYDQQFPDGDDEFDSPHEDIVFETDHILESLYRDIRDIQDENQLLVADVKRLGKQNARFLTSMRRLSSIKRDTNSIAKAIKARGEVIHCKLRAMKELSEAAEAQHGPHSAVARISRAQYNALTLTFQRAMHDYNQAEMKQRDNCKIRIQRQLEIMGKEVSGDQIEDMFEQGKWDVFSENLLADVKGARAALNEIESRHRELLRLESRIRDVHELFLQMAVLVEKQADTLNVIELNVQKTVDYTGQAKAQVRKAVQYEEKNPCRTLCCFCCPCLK

[1] = biological target: T2, GST-syntaxin 11 E25X (human) (UniProt O75558)
T2 sequence: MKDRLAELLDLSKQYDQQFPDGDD

[2] = biological target: T3, GST-syntaxin 11 Q268X (human) (UniProt O75558)
T3 sequence: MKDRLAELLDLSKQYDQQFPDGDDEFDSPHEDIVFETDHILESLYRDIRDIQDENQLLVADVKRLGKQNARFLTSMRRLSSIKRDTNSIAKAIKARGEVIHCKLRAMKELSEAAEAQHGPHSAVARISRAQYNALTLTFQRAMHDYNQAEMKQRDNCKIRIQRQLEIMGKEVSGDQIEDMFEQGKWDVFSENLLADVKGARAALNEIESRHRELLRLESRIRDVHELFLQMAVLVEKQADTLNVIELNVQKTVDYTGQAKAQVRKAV

binding (GST-syntaxin 11 (human)): binds | binding [1]: binds | binding [2]: binds
B1: Myc-Munc18-2 (protein, UniProt Q15833 1-593)
chain: MAPSGLKAVVGEKILSGVIRSVKKDGEWKVLIMDHPSMRILSSCCKMSDILAEGITIVEDINKRREPIPSLEAIYLLSPTEKSVQALIKDFQGTPTFTYKAAHIFFTDTCPEPLFSELGRSRLAKVVKTLKEIHLAFLPYEAQVFSLDAPHSTYNLYCPFRAEERTRQLEVLAQQIATLCATLQEYPAIRYRKGPEDTAQLAHAVLAKLNAFKADTPSLGEGPEKTRSQLLIMDRAADPVSPLLHELTFQAMAYDLLDIEQDTYRYETTGLSEAREKAVLLDEDDDLWVELRHMHIADVSKKVTELLRTFCESKRLTTDKANIKDLSQILKKMPQYQKELNKYSTHLHLADDCMKHFKGSVEKLCSVEQDLAMGSDAEGEKIKDSMKLIVPVLLDAAVPAYDKIRVLLLYILLRNGVSEENLAKLIQHANVQAHSSLIRNLEQLGGTVTNPGGSGTSSRLEPRERMEPTYQLSRWTPVIKDVMEDAVEDRLDRNLWPFVSDPAPTASSQAAVSARFGHWHKNKAGIEARAGPRLIVYVMGGVAMSEMRAAYEVTRATEGKWEVLIGSSHILTPTRFLDDLKALDKKLEDIALP
